Data: PubChem BioAssay AID330 (DTP/NCI, 2004)
The list is a part of this screen's results and no random one: it gathers tests that were run many times, whatever their T/C, doses with no T/C, and many T/C values between a quarter and a half above the control. Other doses and runs of a compound stand elsewhere. T/C is the treated group as % of the vehicle group. Some doses have a count of surviving animals in place of a T/C: the source files T/C as zero there, which appears to mark a toxic dose or a test without result, not a measured value. Some survivor counts are full or nearly so, which does not show that the dose was tolerated: survival well below the control is almost never listed, so the zero probably covers shortened survival too. Survivors were counted at the toxicity check, usually on the fifth day, unless a day is given; later deaths do not show. Schedule codes are those of the source, read here as Q, the interval in days (D) or hours (H), X, the number of doses. Some doses were run more than once; their values stand side by side, smallest first. Where survival is the endpoint, this PubChem deposit counts one and a half times the control or more as active, and values a quarter to a half above the control carry no call in these data; other NCI protocols may use other cut-offs. Some T/C values are followed by the survivors on the day toxicity was checked, most often the fifth; where none is given, no animal had died by that day.

Test system: P388 leukemia ip, CD2F1 mice, survival T/C
Assay: NCI In Vivo Anticancer Drug Screen. Data for tumor model P388 Leukemia (intraperitoneal) in CD2F1 (CDF1) mice
Details: T/C endpoint: median survival time, higher T/C = longer survival
[1] = dose: 200.0 mg/kg/injection, schedule: Q01DX009 (ip), vehicle: saline
[2] = dose: 200.0 mg/kg/injection, schedule: Q04DX002 (ip), vehicle: saline with Tween-80
[3] = dose: 25.0 mg/kg/injection, schedule: Q01DX005 (ip), vehicle: saline with Tween-80
[4] = dose: 50.0 mg/kg/injection, schedule: Q01DX005 (ip), vehicle: saline with Tween-80
[5] = dose: 100.0 mg/kg/injection, schedule: Q01DX005 (ip), vehicle: saline with Tween-80
[6] = dose: 200.0 mg/kg/injection, schedule: Q01DX005 (ip), vehicle: saline with Tween-80
[7] = dose: 200.0 mg/kg/injection, schedule: Q01DX009 (ip), vehicle: saline with Tween-80
[8] = dose: 50.0 mg/kg/injection, schedule: Q01DX009 (ip), vehicle: other

C[N+](C)(C)NC1OC(C(O)S(=O)(=O)O)C(OCc2ccccc2)C(OCc2ccccc2)C1O (stereo unspecified)
survivor count [1]: 1 of 6

C=CC(O)CC#N (stereo unspecified)
survivor count (dose: 150.0 mg/kg/injection, schedule: Q01DX009 (ip), vehicle: saline with Tween-80): 0 of 6
survivor count (dose: 300.0 mg/kg/injection, schedule: Q01DX009 (ip), vehicle: saline with Tween-80): 0 of 6

CC(C)SCNc1ncnc2c1ncn2C1OC(CO)C(O)C1O (stereo unspecified)
survivor count [2]: 0 of 6
survivor count (dose: 400.0 mg/kg/injection, schedule: Q04DX002 (ip), vehicle: saline with Tween-80): 0 of 6

CCCCCCCCCC[N+]1(CC)CCCCCC1
survivor count (dose: 12.5 mg/kg/injection, schedule: Q01DX009 (ip), vehicle: saline): 2 of 6
survivor count (dose: 50.0 mg/kg/injection, schedule: Q01DX009 (ip), vehicle: saline): 0 of 6
survivor count (dose: 100.0 mg/kg/injection, schedule: Q01DX009 (ip), vehicle: saline): 0 of 6
survivor count [1]: 0 of 6

[NH-]CC(=O)O.[NH-]CC(=O)O.[Ni+2]
survivor count [3]: 6 of 6
survivor count [4]: 1 of 6
survivor count [5]: 0 of 6
survivor count [6]: 0 of 6

CC(NC(=O)C(Cc1ccccc1)NC(=O)c1ccc[n+](Cc2ccccc2)c1)C(N)=O (stereo unspecified)
survivor count (dose: 240.0 mg/kg/injection, schedule: Q01DX005 (ip), vehicle: saline): 0 of 6

O=C1C=C(O)CC2(CCCCC2)C1
survivor count (dose: 50.0 mg/kg/injection, schedule: Q01DX005 (ip), vehicle: Klucel (hydroxypropylcellulose) (HPC)): 5 of 5

CCOP(=O)(Cc1cc(=O)oc2cc(OC)ccc12)OCC
survivor count (dose: 400.0 mg/kg/injection, schedule: Q01DX001 (ip), vehicle: saline): 3 of 6

O=C(NC(=S)Nc1ccsc1)c1ccccc1
survivor count [7]: 6 of 6

CC(=O)NC(=S)Nc1cccs1
survivor count (dose: 50.0 mg/kg/injection, schedule: Q01DX009 (ip), vehicle: saline with Tween-80): 5 of 6
survivor count (dose: 100.0 mg/kg/injection, schedule: Q01DX009 (ip), vehicle: saline with Tween-80): 5 of 6
survivor count [7]: 0 of 6

COc1cc2ccc(/C=C\[N+](=O)[O-])cc2cc1OC
T/C (dose: 25.0 mg/kg/injection, schedule: Q01DX009 (ip), vehicle: other): 130 % of control
T/C [8]: 126 % of control
survivor count [8]: 3 of 6
survivor count (dose: 100.0 mg/kg/injection, schedule: Q01DX009 (ip), vehicle: other): 1 of 6
survivor count (dose: 200.0 mg/kg/injection, schedule: Q01DX009 (ip), vehicle: other): 3 of 6

CSC(=S)N/N=C\c1c(CO)cnc(C)c1O
T/C [2]: 133 % of control

COc1cccc(C[n+]2ccccc2C#N)c1OC
survivor count (dose: 25.0 mg/kg/injection, schedule: Q04DX002 (ip), vehicle: saline): 0 of 6
survivor count (dose: 50.0 mg/kg/injection, schedule: Q04DX002 (ip), vehicle: saline): 0 of 6
survivor count (dose: 100.0 mg/kg/injection, schedule: Q01DX002 (ip), vehicle: saline): 0 of 5
survivor count (dose: 100.0 mg/kg/injection, schedule: Q04DX002 (ip), vehicle: saline): 0 of 6
survivor count (dose: 200.0 mg/kg/injection, schedule: Q01DX002 (ip), vehicle: saline): 0 of 5
survivor count (dose: 200.0 mg/kg/injection, schedule: Q04DX002 (ip), vehicle: saline): 0 of 6
survivor count (dose: 400.0 mg/kg/injection, schedule: Q01DX002 (ip), vehicle: saline): 0 of 5
survivor count (dose: 400.0 mg/kg/injection, schedule: Q04DX002 (ip), vehicle: saline): 0 of 6

CCN(CC)P(Cl)(C1=C(Cl)C(=O)C(C#N)=C(C#N)C1=O)(N(CC)CC)N(CC)CC
survivor count (dose: 200.0 mg/kg/injection, schedule: Q01DX001 (ip), vehicle: saline with Tween-80): 6 of 6

CC(=O)NC(CCO)C(N)=O (stereo unspecified)
survivor count (dose: 25.0 mg/kg/injection, schedule: Q01DX009 (ip), vehicle: water): 6 of 6

CCc1ccc(C(=O)N/N=C(\C)[C@]2(O)Cc3c(O)c4c(c(O)c3[C@@H](OC3CC(N)C(O)C(C)O3)C2)C(=O)c2c(OC)cccc2C4=O)cc1 (stereo partly specified)
T/C (dose: 0.25 mg/kg/injection, schedule: Q01DX009 (ip), vehicle: water, evaluated on day 30): 139 % of control
T/C (dose: 0.25 mg/kg/injection, schedule: Q01DX009 (ip), vehicle: water, evaluated on day 45): 133 % of control
T/C (dose: 0.5 mg/kg/injection, schedule: Q01DX009 (ip), vehicle: water, evaluated on day 30): 148 % of control
T/C (dose: 0.5 mg/kg/injection, schedule: Q01DX009 (ip), vehicle: water, evaluated on day 45): 137 % of control
survivor count (dose: 16.0 mg/kg/injection, schedule: Q01DX009 (ip), vehicle: water): 5 of 6 and 6 of 6

CCn1nccc1N
survivor count [4]: 0 of 6
survivor count [5]: 0 of 6
survivor count [6]: 0 of 6

CCOc1ccc(C(C)c2cc3c(cc2OC)OCO3)cc1 (stereo unspecified)
T/C (dose: 50.0 mg/kg/injection, schedule: Q01DX005 (ip), vehicle: distilled water + Tween-80, evaluated on day 20): 100 % of control
T/C (dose: 50.0 mg/kg/injection, schedule: Q01DX005 (ip), vehicle: distilled water + Tween-80, evaluated on day 30): 105, 111, 115 % of control
T/C (dose: 50.0 mg/kg/injection, schedule: Q01DX005 (ip), vehicle: distilled water + Tween-80, evaluated on day 60): 111 % of control
T/C (dose: 100.0 mg/kg/injection, schedule: Q01DX005 (ip), vehicle: distilled water + Tween-80, evaluated on day 20): 115 % of control
T/C (dose: 100.0 mg/kg/injection, schedule: Q01DX005 (ip), vehicle: distilled water + Tween-80, evaluated on day 30): 116, 118, 123 % of control
T/C (dose: 100.0 mg/kg/injection, schedule: Q01DX005 (ip), vehicle: distilled water + Tween-80, evaluated on day 60): 120 % of control
T/C (dose: 200.0 mg/kg/injection, schedule: Q01DX005 (ip), vehicle: distilled water + Tween-80, evaluated on day 20): 137 % of control
T/C (dose: 200.0 mg/kg/injection, schedule: Q01DX005 (ip), vehicle: distilled water + Tween-80, evaluated on day 30): 119, 132, 142, 157, 178 % of control
T/C (dose: 200.0 mg/kg/injection, schedule: Q01DX005 (ip), vehicle: distilled water + Tween-80, evaluated on day 60): 131 % of control
survivor count (dose: 250.0 mg/kg/injection, schedule: Q01DX005 (ip), vehicle: distilled water + Tween-80): 6 of 6
T/C (dose: 400.0 mg/kg/injection, schedule: Q01DX005 (ip), vehicle: distilled water + Tween-80, evaluated on day 20): 161 % of control [4 of 6 alive]
T/C (dose: 400.0 mg/kg/injection, schedule: Q01DX005 (ip), vehicle: distilled water + Tween-80, evaluated on day 30): 129 % of control
survivor count (dose: 400.0 mg/kg/injection, schedule: Q01DX005 (ip), vehicle: distilled water + Tween-80): 2 of 6 and 6 of 10
survivor count (dose: 555.55 mg/kg/injection, schedule: Q01DX005 (ip), vehicle: distilled water + Tween-80): 4 of 6
survivor count (dose: 555.56 mg/kg/injection, schedule: Q01DX005 (ip), vehicle: distilled water + Tween-80): 4 of 6

COC1NC(=S)N(C(C)(C)C)C1(C)C (stereo unspecified)
survivor count (dose: 100.0 mg/kg/injection, schedule: Q01DX009 (ip), vehicle: suspension in saline): 3 of 6
survivor count (dose: 200.0 mg/kg/injection, schedule: Q01DX009 (ip), vehicle: suspension in saline): 0 of 6

Cc1ccc(N=C2c3ccccc3-c3ccc(NC(=O)c4ccccc4)cc32)cc1
survivor count (dose: 12.5 mg/kg/injection, schedule: Q01DX005 (ip), vehicle: saline with Tween-80): 6 of 6
survivor count [3]: 6 of 6
survivor count [4]: 6 of 6
survivor count [5]: 5 of 5
survivor count [6]: 5 of 5
